Assay results published in publication PMC3695902.
Results are given in words; binding and its absence hold for the method and conditions named. In cells and extracts the contact can be indirect. Some entries that bind do so weakly or less than the wild type.

Protein sequences, listed by entry. Tags and fused reporters are not part of them.
UniProt P41145: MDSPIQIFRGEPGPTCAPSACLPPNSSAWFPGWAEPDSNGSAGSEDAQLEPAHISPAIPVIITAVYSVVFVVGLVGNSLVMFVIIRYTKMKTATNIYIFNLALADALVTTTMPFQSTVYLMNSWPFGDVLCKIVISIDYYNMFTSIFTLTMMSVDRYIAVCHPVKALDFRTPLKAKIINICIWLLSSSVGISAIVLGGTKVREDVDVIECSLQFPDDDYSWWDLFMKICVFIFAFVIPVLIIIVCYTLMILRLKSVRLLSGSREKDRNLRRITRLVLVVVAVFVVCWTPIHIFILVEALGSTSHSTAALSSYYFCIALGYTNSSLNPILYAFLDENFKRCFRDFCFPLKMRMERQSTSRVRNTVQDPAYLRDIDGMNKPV
UniProt P35212: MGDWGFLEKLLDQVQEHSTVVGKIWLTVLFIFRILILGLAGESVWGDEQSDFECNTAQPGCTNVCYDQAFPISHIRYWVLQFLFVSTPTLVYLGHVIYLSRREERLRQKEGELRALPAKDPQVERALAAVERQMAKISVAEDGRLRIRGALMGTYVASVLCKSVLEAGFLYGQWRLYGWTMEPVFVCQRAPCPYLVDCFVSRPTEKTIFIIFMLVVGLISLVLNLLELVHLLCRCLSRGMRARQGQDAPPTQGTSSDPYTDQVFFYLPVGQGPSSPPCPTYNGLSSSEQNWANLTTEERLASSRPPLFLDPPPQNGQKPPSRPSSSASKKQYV

Target: FLAG-tagged kappa opioid receptor stably expressed in HEK293 cells (HEK-KOR) (UniProt P41145)
Experiment: co-IP; FLAG-tagged MOR, DOR or KOR immunoprecipitated with rabbit anti-FLAG on Protein-G Dynabeads from 1 mg lysate of stably expressing HEK293 cells transfected with tagged MORIPs; blot anti-myc or anti-HA; mock IP with non-specific rabbit IgG; cells of Figure 7B treated 6 hours with 30 µM MG132

- binding: binds
Substance: myc-tagged full-length Cx37 (from UniProt P35212 1-333)
